Assay results as given in patent publication US8815565B2, “Method for culturing mycoplasma contamination-free cells and method for removing mycoplasma contamination of cells” (Cellsafe Co., Ltd., priority 2010, dated 2014).
At least one compound was matched to its structure with a doubt left.

Test system: HepG2 cell line contaminated with mycoplasma
Test: Co-treatment with amphidinol 3 (AM3) and cyclic lipopeptide/antibiotic, PCR with mycoplasma diagnosis kit
Type: cell-based
Protocol: The cell lines NIH3T3, HepG2, and Raw 264.7, which were confirmed to be contaminated with mycoplasma, were each inoculated at a concentration of 1×10^6 cells on a T-75 culture flask (NUNC, Cat. No. 156367). DMEM (GIBCO BRL, Cat. No. 12800-058) containing 10% or less of serum (GIBCO BRL, Cat. […] After culturing for 3 days, the obtained cells were treated with Trypsin-EDTA to obtain a cell solution. The resulting cells (1×10^6 cells) which was treated with amphidinol 3 (AM3) were inoculated. DMEM (GIBCO BRL, Cat. No. 12800-058) containing 10% or less of serum (GIBCO BRL, Cat. […] After culturing for 3 days, the cells were harvested. PCR was performed thereon with a mycoplasma diagnosis kit (Promokine, Germany; Cellsafe Co., Ltd., Korea) according to the enclosed protocol. The resulting PCR products were electrophoresed on a 1% agarose gel to measure the mycoplasma contamination.

## CO[C@H]1/C=C/O[C@@]2(C)Oc3c(C)c(O)c4c(O)c(c(/C=N/N5CCN(C)CC5)c(O)c4c3C2=O)NC(=O)/C(C)=C\C=C\[C@H](C)[C@H](O)[C@@H](C)[C@@H](O)[C@@H](C)[C@H](OC(C)=O)[C@@H]1C [rifampicin]
Used alone, surfactin 10 or 20 μM, ciprofloxacin 1 or 5 μg/ml, rifampicin 0.5 or 1 μg/ml
  mycoplasma contamination: mycoplasma contamination remained
Used together with amphidinol 3 (AM3) 5 and 10 μg/ml
  mycoplasma contamination: completely removed
